Source: patent US12472448B2, “Compact hydroxamate-based affinity tags for artificially tagging biological macromolecules” (The Board of Trustees of the Leland Stanford Junior …, priority 2019, dated 2025)
At least one compound was matched to its structure with a doubt left.

Assay: Yb-NTA IMAC enrichment of hydroxamate-labeled cysteine peptide from tryptic BSA peptides
Details: two passes / two columns in series

In the case of `O=C(CN1CCN(C(=O)CI)CC1)NO` [compound (2)], the “fold-enrichment using two Yb-IMAC columns in series” value is reported as > 300 fold.
